Experimental data published in patent US20100256196A1, “Biomarkers for Atherosclerosis” (IKFE, priority 2008, published 2010).
“Also recorded” adds a separate entry of the source. For at least one compound, name, drawing or mass did not settle the structure.

Tests used:
[1] = tested on: patients with type 2 diabetes and established atherosclerosis; assay: Clinical and biochemical observation parameters, double-blind placebo-controlled study, 4 weeks add-on treatment; assay type: in vivo, human
[2] = tested on: NFκB and NFκB-modulated cytokines in circulating peripheral mononuclear cells; assay: mRNA expression in circulating mononuclear cells (CD14+ monocytes/macrophages), calibrator-normalized relative quantification by LightCycler PCR; assay type: in vivo, human
Source text: Blood for the measurement of fasting glucose, MMP-9, and hsCRP was taken at baseline and after 3, 7, 10, 14 and 28 days of study treatment. Blood for assessment of the mRNA expression profile of circulating mononuclear cells as well as for assessment of circulating plasma levels of HbAlc, Insulin, Intact Proinsulin, Adiponectin, IL-6, sCD40L, P-Selectin, MIF, Angiotensin II, complement factor 3, and blood lipids were obtained at baseline and at the end of the study. Insulin resistance was calculated using the HOMAIR score at baseline and study endpoint as published previously (29, 30). […]
The mRNA isolation from macrophages and monocytes was performed with the High Pure RNA Isolation Kit (Roche Applied Science, Penzberg, Germany). […] Purity of the isolated mRNA was assessed by real-time PCR (LightCycler II, Roche Diagnostics, Mannheim, Germany). […]
Sequence specific primers were designed by TIB MOLBIOL (Syntheselabor GmbH, Berlin, Germany) to amplify the gene sequences of Rel-A, p105, IκB-α, IκB-β and IL-6. The primers for TNF-α were taken from “Rapid Cycle Real-Time PCR Methods and Applications Quantification” (31). […] A list of the primers used for the quantification experiments, the primer-specific PCR protocols and the specific amplification product melting points are provided in Table 1. […]

[3] = tested on: patients with type 2 diabetes; conditions: 30 mg, after 4 weeks, 20 patients with type 2 diabetes; cited from earlier work
[4] = tested on: macrophages; conditions: by inducing apoptotic cell death in macrophages through PPARγ activation; cited from earlier work
[5] = tested on: NF-κB; conditions: non-diabetic obese patients; cited from earlier work
[6] = tested on: healthy subjects; conditions: three-week treatment, cited from earlier work
[7] = p<0.001 vs. placebo at endpoint

CCc1ccc(CCOc2ccc(CC3SC(=O)NC3=O)cc2)nc1 (centres unmarked) [pioglitazone]
Change from baseline to endpoint in HbA1c [1]: no significant change | Change in fasting glucose during the observation period ([1]; FIG. 2): slight but non-significant decrease | Change in hsCRP during the observation period ([1]; FIG. 2, not seen in the placebo group): fast and significant decrease | Change in HOMAIR score [1, 7]: decrease | Change in adiponectin values [1, 7]: increase | Change in intact proinsulin concentrations [1, 7]: decrease | Insulin resistance and the metabolic syndrome [1, 7]: significant improvement | Change in MMP-9 during the observation period ([1]; plasma, FIG. 2, not seen in the placebo group): fast and significant decrease | mRNA expression of the inhibitory markers (IκB-α and IκB-β) ([2]; 4 weeks additional pioglitazone therapy): changed inversely; also recorded: apparently increased | Inflammatory state of the circulating monocytes (overall expression pattern) ([2]; 4 weeks pioglitazone therapy): comprehensive decrease | Endothelial function in conduit arteries [3]: amelioration | Macrophage infiltration in white adipose tissue [4]: reduces

Cc1c(C)c2c(c(C)c1O)CCC(C)(COc1ccc(CC3SC(=O)NC3=O)cc1)O2 (centres unmarked) [troglitazone]
IκB [5]: stimulate | NF-κB activity [5]: suppress

CN(CCOc1ccc(CC2SC(=O)NC2=O)cc1)c1ccccn1 (centres unmarked) [rosiglitazone]
Flow-mediated, endothelium-dependent vasodilatation ([6]; starting within the first day): increased | Blood glucose or lipid levels [6]: did not change | Pro-inflammatory and pro-thrombotic biomarkers [6]: rapid reduction
